The target in this assay is Strep-NSP8 (SARS-CoV-2 non-structural protein 8) (SARS-CoV-2) (UniProt P0DTD1). As to the kind of experiment: affinity purification with mass spectrometry.

Protein sequences, listed by entry. Tags and fused reporters are not part of them.
UniProt Q9ULT8: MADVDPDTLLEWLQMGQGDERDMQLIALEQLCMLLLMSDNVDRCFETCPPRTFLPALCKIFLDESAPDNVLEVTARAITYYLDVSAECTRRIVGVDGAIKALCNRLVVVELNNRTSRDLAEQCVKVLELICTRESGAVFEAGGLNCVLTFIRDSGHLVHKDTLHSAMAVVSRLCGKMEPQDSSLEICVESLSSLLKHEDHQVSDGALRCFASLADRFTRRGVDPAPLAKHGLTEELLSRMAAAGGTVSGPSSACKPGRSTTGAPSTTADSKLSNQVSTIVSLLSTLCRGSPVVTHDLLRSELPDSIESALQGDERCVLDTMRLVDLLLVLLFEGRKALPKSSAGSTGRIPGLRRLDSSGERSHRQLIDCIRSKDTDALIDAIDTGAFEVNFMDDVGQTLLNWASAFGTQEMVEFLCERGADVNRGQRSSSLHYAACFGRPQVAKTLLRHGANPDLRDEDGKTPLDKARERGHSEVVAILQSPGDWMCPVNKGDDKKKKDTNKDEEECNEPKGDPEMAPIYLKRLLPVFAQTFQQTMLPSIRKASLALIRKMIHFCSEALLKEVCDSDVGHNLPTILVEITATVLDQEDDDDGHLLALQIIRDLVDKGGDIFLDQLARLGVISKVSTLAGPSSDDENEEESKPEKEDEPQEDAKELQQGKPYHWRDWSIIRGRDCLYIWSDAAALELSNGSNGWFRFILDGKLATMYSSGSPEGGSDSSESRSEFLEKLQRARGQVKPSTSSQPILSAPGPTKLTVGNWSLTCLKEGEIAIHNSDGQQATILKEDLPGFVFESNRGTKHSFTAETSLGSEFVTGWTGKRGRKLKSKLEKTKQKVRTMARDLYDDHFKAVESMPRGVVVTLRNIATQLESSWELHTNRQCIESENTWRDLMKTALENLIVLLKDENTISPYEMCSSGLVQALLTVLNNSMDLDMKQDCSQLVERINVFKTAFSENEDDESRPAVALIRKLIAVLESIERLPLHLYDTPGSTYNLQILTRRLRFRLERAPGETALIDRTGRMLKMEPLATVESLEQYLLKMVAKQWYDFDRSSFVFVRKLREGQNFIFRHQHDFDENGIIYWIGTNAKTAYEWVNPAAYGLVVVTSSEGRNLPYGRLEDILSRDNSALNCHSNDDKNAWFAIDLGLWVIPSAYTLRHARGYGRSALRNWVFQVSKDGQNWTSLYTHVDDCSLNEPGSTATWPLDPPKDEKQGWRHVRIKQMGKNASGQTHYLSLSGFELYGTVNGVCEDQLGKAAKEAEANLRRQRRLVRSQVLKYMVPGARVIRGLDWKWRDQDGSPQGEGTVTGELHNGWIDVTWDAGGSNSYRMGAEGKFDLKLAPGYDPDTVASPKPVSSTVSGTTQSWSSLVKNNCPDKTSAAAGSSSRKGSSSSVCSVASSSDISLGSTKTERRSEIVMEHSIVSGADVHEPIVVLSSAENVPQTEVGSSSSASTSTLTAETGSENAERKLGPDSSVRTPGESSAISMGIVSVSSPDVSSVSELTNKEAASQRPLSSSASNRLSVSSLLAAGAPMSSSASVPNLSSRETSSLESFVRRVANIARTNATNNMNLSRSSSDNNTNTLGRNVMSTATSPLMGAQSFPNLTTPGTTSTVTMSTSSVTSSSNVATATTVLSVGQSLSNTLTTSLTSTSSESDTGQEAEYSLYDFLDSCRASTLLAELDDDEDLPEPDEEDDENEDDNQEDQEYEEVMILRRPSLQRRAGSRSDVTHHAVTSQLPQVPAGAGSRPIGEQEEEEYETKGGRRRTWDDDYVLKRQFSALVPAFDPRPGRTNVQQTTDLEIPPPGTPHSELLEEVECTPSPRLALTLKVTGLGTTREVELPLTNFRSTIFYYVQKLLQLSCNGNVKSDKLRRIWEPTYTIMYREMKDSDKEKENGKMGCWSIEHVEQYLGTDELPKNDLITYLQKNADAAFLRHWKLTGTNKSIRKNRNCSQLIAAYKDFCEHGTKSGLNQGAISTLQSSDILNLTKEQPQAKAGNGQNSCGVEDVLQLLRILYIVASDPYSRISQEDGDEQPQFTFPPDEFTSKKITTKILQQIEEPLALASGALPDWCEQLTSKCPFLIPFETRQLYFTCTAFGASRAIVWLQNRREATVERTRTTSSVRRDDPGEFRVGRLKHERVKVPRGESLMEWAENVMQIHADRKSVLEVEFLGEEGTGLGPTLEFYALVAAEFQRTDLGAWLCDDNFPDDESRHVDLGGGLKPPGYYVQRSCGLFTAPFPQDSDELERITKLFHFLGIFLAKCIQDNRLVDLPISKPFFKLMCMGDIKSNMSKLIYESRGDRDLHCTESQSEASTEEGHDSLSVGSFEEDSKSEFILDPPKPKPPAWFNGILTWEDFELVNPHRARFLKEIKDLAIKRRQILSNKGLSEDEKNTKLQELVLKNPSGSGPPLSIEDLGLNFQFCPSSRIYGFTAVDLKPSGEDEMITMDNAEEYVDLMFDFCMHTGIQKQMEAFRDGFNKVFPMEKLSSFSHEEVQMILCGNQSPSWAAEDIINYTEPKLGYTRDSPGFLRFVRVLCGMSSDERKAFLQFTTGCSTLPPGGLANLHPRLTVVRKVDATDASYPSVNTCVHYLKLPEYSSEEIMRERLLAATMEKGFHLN

Results are given in words; binding and its absence hold for the method and conditions named. Binding seen in cells or lysates may run through a third protein. Here binding means that the protein was enriched with, or labelled near, the bait; the list need not be complete.

“HECT domain E3 ubiquitin protein ligase 1 (HECTD1), endogenous (from UniProt Q9ULT8 1-2610)”: the binding entry is listed as “binds”.
